These are yes or no findings as the source states them, for the method shown. Some binding calls cover weakened binding; strength is not graded here.
Molecular target: survivin (His-tagged, from pHIS8) (human) (UniProt O15392)
Assay: BLI; reverse experiment: survivin (2.5 μM) immobilised on AR2G biosensors; EZH2 peptide as analyte at 21.2 μM, 2.12 μM, 212 nM, 21.2 nM; survivin SEC buffer; 30°C; Bayesian 1:1 model, apparent dissociation constant; both purified

Sequences of proteins named here, by UniProt entry; tags and fusion partners are left off.
UniProt O15392: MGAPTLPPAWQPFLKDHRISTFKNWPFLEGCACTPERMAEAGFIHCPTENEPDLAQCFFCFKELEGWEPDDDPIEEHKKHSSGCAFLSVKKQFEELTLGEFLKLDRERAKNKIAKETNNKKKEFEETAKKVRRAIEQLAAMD

For VELVNALGQYNDDDDDDDGDDPEEREEKQKDLEDHRDDKE [EZH2_(172-211) peptide], the binding was “binds”.

From PMC10391610, “Survivin prevents the polycomb repressor complex 2 from methylating histone 3 lysine 27” (iScience, 2023)
